Measurements as given in the M2OR odorant receptor database.
Only a part is listed here, and it is no random draw. The calls were merged from several studies; some rest on single wells.

Protein sequences, listed by entry. Tags and fused reporters are not part of them. Lines headed by an entry give the natural chain unless they say otherwise; changes in a name come on top.
UniProt B2RN74: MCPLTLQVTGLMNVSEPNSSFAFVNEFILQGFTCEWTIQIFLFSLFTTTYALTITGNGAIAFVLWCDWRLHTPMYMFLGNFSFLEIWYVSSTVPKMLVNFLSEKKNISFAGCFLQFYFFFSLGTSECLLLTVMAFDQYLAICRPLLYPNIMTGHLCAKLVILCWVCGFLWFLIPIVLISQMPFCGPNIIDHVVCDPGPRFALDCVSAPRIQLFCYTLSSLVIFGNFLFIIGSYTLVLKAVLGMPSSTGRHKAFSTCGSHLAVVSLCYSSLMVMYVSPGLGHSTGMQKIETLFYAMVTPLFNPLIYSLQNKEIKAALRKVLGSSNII
UniProt Q8NGC1: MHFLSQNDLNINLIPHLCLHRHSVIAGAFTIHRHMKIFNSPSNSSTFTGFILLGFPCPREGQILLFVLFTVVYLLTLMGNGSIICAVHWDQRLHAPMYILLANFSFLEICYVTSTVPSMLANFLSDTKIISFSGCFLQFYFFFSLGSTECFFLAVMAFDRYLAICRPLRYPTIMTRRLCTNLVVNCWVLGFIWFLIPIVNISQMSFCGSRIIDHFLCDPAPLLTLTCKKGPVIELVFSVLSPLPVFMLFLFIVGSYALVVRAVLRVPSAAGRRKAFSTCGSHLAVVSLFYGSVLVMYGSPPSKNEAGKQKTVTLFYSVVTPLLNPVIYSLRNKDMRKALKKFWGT
UniProt Q8NG94: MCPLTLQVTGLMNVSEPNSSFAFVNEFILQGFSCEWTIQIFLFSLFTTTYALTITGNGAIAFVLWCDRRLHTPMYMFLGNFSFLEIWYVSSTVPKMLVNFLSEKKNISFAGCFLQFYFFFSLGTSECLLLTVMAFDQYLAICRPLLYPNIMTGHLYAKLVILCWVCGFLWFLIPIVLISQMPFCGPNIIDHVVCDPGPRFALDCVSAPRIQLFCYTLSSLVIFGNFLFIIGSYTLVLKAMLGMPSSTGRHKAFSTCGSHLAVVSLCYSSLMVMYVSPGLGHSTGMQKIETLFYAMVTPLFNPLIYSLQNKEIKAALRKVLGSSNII
UniProt Q8NGX0: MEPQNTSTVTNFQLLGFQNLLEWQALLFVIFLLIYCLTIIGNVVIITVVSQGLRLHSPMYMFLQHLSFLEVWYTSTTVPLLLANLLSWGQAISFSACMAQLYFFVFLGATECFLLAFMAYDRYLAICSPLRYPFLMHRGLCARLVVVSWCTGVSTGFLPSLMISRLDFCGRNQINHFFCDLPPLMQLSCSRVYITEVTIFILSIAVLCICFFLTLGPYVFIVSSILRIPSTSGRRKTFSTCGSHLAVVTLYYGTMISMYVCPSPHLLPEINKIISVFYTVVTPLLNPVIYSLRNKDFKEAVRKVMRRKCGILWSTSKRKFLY

Legend:
Details in all cases: stereoisomer not certain
OR11A1 (Homo sapiens) = biological target: T1, OR11A1 (Homo sapiens) (UniProt Q9GZK7)
T1 sequence (whole entry): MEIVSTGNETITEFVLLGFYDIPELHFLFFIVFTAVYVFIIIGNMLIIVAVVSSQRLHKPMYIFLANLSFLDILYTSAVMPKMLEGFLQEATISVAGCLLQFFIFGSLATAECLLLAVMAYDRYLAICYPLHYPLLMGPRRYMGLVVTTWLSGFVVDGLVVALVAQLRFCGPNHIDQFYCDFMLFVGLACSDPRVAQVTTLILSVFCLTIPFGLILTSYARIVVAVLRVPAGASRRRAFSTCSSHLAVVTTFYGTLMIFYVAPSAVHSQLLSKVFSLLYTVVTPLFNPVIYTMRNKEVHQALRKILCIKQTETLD
In short: (§1)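 Each receptor–molecule pair is labelled responsive or non-responsive (inactive) according to whether the original authors judged the measured signal statistically different from baseline. The data were taken from the main text and supplementary material of published papers and checked for typos and inconsistencies. Assay methods differed by source, with transient luciferase assays in mammalian cell lines being common.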

OR11H4 (Homo sapiens) = biological target: T2, OR11H4 (Homo sapiens) (UniProt Q8NGC9)
T2 sequence (whole entry): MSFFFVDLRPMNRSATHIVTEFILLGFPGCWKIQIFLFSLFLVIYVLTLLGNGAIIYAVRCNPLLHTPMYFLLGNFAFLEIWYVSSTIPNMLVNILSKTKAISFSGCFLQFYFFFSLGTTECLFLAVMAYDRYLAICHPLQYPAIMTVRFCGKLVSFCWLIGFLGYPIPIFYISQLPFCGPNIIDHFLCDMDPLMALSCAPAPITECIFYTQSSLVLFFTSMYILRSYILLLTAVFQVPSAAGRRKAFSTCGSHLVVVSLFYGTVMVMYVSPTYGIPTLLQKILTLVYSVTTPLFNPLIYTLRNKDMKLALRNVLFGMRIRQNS
In short: as §1

OR11H6 (Homo sapiens) = biological target: T3, OR11H6 (Homo sapiens) (UniProt Q8NGC7)
T3 sequence (whole entry): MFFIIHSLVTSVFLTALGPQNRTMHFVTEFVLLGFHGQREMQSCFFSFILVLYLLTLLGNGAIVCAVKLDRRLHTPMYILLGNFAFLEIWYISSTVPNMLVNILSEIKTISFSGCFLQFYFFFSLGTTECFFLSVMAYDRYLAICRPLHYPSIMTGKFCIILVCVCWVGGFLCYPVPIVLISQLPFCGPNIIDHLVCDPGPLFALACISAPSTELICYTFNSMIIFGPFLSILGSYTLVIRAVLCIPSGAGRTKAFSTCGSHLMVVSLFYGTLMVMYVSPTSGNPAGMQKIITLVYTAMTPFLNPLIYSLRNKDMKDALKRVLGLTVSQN
In short: as §1

OR12D2 (Homo sapiens) = biological target: T4, OR12D2 (Homo sapiens) (UniProt P58182)
T4 sequence (whole entry): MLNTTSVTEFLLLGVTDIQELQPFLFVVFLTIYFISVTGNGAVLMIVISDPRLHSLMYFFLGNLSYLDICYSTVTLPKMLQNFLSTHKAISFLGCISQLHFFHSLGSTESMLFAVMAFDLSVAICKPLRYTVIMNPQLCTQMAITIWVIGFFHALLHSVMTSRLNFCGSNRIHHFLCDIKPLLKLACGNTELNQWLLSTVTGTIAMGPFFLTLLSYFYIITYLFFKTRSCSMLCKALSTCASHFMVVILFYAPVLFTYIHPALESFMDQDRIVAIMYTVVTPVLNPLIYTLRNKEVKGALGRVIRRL
In short: as §1

OR12D3 (Homo sapiens) = biological target: T5, OR12D3 (Homo sapiens) (UniProt Q9UGF7)
T5 sequence (whole entry): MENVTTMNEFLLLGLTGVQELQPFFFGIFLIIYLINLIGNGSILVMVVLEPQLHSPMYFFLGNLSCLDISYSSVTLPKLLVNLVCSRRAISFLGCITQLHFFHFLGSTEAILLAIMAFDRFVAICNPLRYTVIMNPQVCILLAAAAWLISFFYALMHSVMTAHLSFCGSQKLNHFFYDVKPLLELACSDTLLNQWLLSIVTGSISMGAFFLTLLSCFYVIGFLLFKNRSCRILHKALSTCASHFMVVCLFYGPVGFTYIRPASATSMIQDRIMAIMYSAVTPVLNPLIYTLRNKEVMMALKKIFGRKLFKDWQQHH
In short: as §1

OR13A1 (Homo sapiens) = biological target: T6, OR13A1 (Homo sapiens) (UniProt Q8NGR1)
T6 sequence (whole entry): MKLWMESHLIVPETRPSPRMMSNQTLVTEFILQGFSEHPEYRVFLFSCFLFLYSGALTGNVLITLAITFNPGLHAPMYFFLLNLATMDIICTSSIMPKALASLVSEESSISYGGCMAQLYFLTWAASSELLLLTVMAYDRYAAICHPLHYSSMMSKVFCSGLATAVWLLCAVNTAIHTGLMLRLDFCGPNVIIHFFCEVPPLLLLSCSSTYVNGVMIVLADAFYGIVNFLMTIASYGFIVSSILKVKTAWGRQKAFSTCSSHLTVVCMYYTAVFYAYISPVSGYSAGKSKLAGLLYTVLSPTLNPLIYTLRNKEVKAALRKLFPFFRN
In short: as §1

OR11H12 (Homo sapiens) = OR11H12 (Homo sapiens) (UniProt B2RN74)
In short: as §1

OR11G2 (Homo sapiens) = OR11G2 (Homo sapiens) (UniProt Q8NGC1)
In short: as §1

OR11H1 (Homo sapiens) = OR11H1 (Homo sapiens) (UniProt Q8NG94)
In short: as §1

OR11L1 (Homo sapiens) = OR11L1 (Homo sapiens) (UniProt Q8NGX0)
In short: as §1
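Also: active if original authors judged signal statistically different from baseline.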

| SMILES | odorant receptor agonist call (OR11A1 (Homo sapiens)) | odorant receptor agonist call (OR11H4 (Homo sapiens)) | odorant receptor agonist call (OR11H6 (Homo sapiens)) | odorant receptor agonist call (OR12D2 (Homo sapiens)) | odorant receptor agonist call (OR12D3 (Homo sapiens)) | odorant receptor agonist call (OR13A1 (Homo sapiens)) | odorant receptor agonist call (OR11H12 (Homo sapiens)) | odorant receptor agonist call (OR11G2 (Homo sapiens)) | odorant receptor agonist call (OR11H1 (Homo sapiens)) | odorant receptor agonist call (OR11L1 (Homo sapiens)) |
| --- | --- | --- | --- | --- | --- | --- | --- | --- | --- | --- |
| CC(C)C(=O)O | inactive | inactive | inactive | inactive | inactive | inactive |  |  |  |  |
| CCCCCCCCCCC=O | inactive | inactive | inactive | inactive | inactive | inactive |  |  |  |  |
| CCCCCCCCCC=O | inactive | inactive | inactive | inactive | inactive | inactive |  |  |  |  |
| CC(=O)c1ccccc1 | inactive | inactive | inactive | inactive | inactive | inactive | active |  |  |  |
| CCCCCC(=O)O | inactive | inactive | inactive | inactive | inactive | inactive |  |  |  |  |
| CCCC(=O)O | inactive | inactive | inactive | inactive | inactive | inactive |  |  |  |  |
| CC12CCC(CC1)C(C)(C)O2 | inactive | inactive | inactive | inactive | inactive | inactive |  |  |  |  |
| CCCCCCCCOC(C)=O | inactive | inactive | inactive | inactive | inactive | inactive |  |  |  |  |
| C=CCc1ccc(OC(C)=O)c(OC)c1 | inactive | inactive | inactive | inactive | inactive | inactive |  |  |  |  |
| O=C1CCCCCCCCCCCCCCO1 | inactive | inactive | inactive | inactive | inactive | inactive |  |  |  |  |
| C=CCc1ccc(OC)c(OC)c1 | inactive | inactive | inactive | inactive | inactive | inactive |  |  |  |  |
| CC12C=CCC1C1CCC3=CC(=O)CCC3(C)C1CC2 (stereo not drawn) | active | inactive | inactive | inactive | inactive | inactive |  |  |  |  |
| CC12CCC(C1)C(C)(C)C2=O (stereo not drawn) | inactive | inactive | inactive | inactive | inactive | inactive |  |  |  |  |
| CC1CCC(C(C)C)C(O)C1 (stereo not drawn) | active | inactive | inactive | inactive | inactive | inactive |  |  |  |  |
| CC=Cc1ccc(O)c(OC)c1 | inactive | inactive | inactive | inactive | inactive | inactive |  |  |  |  |
| CCCCCCCC=O | inactive | inactive | inactive | inactive | inactive | inactive |  |  |  |  |
| CC(C)CC(=O)O | inactive | active | active | inactive | inactive | inactive |  |  |  |  |
| CC(=O)OCC=C(C)CCC=C(C)C | inactive | inactive | inactive | inactive | inactive | inactive |  |  |  |  |
| CC(=O)C(C)=O | inactive | inactive | inactive | inactive | inactive | inactive |  |  |  |  |
| CCCCCC(C)=O | inactive | inactive | inactive | inactive | inactive | inactive |  |  |  |  |
| CC12C=CCC1C1CCC3CC(=O)CCC3(C)C1CC2 (stereo not drawn) | inactive | inactive | inactive | inactive | inactive | inactive |  | inactive | inactive | inactive |
| CC(=O)OC(C)(C)C1CC=C(C)CC1 (stereo not drawn) | inactive | inactive | inactive | inactive | inactive | inactive |  |  |  |  |
| c1ccc(Oc2ccccc2)cc1 | inactive | inactive | inactive | inactive | inactive | inactive |  |  |  |  |
| C=CC(C)(O)CCC=C(C)C (stereo not drawn) | inactive | inactive | inactive | inactive | inactive | inactive |  |  |  |  |

Given with tabs: entries from further up
SMILES	odorant receptor agonist call (OR11A1 (Homo sapiens))	odorant receptor agonist call (OR11H4 (Homo sapiens))	odorant receptor agonist call (OR11H6 (Homo sapiens))	odorant receptor agonist call (OR12D2 (Homo sapiens))	odorant receptor agonist call (OR12D3 (Homo sapiens))	odorant receptor agonist call (OR13A1 (Homo sapiens))	odorant receptor agonist call (OR11H12 (Homo sapiens))	odorant receptor agonist call (OR11G2 (Homo sapiens))	odorant receptor agonist call (OR11H1 (Homo sapiens))	odorant receptor agonist call (OR11L1 (Homo sapiens))
CCCCCC(=O)O	inactive	inactive	inactive	inactive	inactive	inactive				
CCCC(=O)O	inactive	inactive	inactive	inactive	inactive	inactive				
